{
  "source": "patent US9840522B2",
  "about": "“Multi-modal bioprobe for bladder cancer imaging and photodynamic therapy” (Hong Kong Baptist University, priority 2014, dated 2017)",
  "origin": "cited, not measured here",
  "details": "in CHCl3; cited from earlier work",
  "note": "At least one structure is not confirmed: it was looked up by name or label, or the drawing left a doubt.",
  "data": [
    {"smiles": "C1=Cc2nc1c(-c1ccccc1)c1nc(c(-c3ccccc3)c3ccc([nH]3)c(-c3ccccc3)c3ccc([nH]3)c2-c2ccccc2)C=C1", "note": "[Compound H2TPP, tetraphenylporphyrin]", "values": [
      {"measurement": "singlet oxygen quantum yield ΦΔ of reference material", "result": 0.55}
    ]}
  ]
}
